# According to the supplement of paper PMC10032668:
# Sequences of proteins named here, by UniProt entry; tags and fusion partners are left off.
# EIF3J, O75822, UniProt O75822, whole entry: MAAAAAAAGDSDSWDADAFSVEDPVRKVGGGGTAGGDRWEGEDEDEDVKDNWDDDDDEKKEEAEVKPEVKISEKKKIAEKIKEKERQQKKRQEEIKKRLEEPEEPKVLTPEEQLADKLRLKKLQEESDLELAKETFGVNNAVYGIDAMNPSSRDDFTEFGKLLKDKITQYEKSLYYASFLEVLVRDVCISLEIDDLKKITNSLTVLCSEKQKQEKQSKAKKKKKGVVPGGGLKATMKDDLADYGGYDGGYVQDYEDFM
# EIF4B, P23588, UniProt P23588, whole entry: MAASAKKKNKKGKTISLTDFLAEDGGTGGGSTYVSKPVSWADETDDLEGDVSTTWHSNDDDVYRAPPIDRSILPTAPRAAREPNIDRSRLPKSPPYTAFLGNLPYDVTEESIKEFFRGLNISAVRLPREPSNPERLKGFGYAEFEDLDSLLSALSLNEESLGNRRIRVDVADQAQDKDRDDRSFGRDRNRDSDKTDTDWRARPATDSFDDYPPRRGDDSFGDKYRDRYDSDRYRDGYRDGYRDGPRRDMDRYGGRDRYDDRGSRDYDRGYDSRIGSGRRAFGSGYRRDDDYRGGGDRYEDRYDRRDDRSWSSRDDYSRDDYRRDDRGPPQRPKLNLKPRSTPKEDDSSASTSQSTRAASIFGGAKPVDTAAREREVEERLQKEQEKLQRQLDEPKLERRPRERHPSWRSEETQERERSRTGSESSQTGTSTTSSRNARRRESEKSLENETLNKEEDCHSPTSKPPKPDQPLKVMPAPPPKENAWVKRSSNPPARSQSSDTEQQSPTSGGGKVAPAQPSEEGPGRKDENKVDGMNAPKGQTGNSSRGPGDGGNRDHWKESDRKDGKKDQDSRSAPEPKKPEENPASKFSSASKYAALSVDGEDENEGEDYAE
# FABP5, Q01469, UniProt Q01469, whole entry: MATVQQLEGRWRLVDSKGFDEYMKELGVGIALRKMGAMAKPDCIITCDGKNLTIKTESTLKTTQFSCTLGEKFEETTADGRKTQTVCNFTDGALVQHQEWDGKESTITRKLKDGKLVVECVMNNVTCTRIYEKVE
# POM121, Q96HA1, UniProt Q96HA1, whole entry: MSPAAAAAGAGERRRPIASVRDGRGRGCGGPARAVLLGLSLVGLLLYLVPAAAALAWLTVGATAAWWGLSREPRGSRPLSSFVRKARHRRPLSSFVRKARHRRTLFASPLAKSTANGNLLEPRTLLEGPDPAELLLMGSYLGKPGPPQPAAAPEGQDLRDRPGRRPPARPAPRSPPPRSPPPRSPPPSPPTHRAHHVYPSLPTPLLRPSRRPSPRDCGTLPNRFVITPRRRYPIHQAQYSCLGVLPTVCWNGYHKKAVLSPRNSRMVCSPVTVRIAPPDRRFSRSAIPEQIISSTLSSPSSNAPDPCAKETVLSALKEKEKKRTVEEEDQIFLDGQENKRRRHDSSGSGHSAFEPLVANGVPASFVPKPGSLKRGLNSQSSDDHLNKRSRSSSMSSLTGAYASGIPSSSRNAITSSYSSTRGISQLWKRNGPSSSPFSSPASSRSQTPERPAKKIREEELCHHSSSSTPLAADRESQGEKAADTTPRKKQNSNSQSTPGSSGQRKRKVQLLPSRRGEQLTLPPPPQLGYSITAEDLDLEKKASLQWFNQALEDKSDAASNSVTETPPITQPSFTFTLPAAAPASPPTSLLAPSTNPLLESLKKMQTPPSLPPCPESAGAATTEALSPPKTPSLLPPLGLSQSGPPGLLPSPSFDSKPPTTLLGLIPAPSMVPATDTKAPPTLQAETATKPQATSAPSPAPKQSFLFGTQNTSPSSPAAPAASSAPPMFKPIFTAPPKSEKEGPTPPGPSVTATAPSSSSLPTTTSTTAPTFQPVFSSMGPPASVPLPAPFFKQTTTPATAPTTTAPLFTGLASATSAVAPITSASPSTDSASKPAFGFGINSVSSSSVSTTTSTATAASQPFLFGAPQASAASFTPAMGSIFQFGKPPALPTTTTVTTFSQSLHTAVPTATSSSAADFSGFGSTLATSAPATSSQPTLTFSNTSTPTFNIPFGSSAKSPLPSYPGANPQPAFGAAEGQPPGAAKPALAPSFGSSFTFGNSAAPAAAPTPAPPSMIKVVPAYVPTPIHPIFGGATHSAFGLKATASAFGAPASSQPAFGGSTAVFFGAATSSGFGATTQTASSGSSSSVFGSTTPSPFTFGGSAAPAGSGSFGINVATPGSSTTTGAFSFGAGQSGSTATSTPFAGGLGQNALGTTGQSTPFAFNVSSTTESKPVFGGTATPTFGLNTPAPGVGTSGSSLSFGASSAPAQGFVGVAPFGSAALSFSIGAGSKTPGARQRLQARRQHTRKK
# POM121C, A8CG34, UniProt A8CG34, whole entry: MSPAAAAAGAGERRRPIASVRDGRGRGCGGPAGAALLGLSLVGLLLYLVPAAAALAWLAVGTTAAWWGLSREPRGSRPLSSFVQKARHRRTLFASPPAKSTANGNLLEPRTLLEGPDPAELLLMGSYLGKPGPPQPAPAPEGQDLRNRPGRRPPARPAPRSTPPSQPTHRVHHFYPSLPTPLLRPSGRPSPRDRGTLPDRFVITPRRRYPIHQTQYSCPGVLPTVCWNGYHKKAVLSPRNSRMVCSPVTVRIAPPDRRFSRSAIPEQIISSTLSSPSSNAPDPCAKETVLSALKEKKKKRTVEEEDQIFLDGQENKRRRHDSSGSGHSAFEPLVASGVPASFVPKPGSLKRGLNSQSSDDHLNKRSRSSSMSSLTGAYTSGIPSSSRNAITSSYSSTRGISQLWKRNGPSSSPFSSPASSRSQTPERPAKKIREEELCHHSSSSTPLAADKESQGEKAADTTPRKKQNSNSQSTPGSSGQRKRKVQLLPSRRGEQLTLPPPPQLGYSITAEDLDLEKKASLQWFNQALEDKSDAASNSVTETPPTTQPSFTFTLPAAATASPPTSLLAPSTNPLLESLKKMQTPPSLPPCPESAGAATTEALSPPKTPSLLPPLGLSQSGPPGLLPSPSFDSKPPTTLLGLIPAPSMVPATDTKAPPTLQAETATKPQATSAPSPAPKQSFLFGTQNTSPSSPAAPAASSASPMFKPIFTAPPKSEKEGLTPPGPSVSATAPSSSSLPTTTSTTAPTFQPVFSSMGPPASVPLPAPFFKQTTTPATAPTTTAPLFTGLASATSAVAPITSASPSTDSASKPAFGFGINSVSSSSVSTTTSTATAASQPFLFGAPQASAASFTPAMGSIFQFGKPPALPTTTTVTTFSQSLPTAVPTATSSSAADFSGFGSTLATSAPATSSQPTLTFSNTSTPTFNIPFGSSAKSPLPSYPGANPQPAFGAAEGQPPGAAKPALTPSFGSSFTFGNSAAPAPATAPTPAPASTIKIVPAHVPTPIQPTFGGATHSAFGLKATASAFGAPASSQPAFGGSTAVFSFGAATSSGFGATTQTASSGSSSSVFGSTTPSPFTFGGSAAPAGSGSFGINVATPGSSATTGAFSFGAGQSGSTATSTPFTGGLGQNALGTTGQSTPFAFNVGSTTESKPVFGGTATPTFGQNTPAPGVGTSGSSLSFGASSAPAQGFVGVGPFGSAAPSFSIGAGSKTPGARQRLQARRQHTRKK
# PSMD1, Q99460, UniProt Q99460, whole entry: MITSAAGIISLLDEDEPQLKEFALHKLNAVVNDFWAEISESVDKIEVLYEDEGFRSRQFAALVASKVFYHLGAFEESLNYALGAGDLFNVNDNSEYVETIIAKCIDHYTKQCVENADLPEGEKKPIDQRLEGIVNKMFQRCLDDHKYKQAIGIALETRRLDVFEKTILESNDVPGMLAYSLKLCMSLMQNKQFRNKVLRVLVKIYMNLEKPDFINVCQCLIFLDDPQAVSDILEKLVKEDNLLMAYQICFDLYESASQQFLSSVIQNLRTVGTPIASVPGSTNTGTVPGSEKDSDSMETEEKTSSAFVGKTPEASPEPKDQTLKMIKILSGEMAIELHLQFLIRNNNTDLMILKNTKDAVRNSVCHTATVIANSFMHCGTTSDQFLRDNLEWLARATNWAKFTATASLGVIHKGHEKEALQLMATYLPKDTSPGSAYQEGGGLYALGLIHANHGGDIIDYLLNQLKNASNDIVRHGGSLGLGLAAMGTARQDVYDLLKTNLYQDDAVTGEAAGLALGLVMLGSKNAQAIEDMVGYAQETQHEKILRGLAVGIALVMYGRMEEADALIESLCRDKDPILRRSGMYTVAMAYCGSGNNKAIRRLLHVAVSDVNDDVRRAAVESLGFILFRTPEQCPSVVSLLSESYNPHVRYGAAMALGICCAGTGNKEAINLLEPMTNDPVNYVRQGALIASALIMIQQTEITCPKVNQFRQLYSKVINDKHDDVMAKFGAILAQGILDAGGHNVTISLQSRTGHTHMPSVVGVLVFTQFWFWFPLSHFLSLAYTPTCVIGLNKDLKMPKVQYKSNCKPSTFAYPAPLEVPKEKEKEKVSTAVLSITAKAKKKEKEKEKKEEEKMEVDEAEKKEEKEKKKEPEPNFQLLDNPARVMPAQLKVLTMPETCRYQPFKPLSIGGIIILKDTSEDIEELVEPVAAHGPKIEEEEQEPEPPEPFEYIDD
# SNRPA, P09012, UniProt P09012, whole entry: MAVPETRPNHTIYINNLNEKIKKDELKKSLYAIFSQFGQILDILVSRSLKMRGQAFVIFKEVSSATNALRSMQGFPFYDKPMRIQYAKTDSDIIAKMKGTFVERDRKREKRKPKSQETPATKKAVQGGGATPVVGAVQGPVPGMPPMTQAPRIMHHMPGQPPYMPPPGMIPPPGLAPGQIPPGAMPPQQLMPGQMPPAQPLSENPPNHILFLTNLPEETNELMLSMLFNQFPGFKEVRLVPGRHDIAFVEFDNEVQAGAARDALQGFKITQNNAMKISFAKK
# The list shows a part of the results. The list holds hits alone, and they repeat only in part.
# Columns and labels:
# Assay in all cases: PRISMA enrichment of interactor (LFQ) in peptide spot vs all other peptide spots (log2 fold change); higher = stronger / more specific binding of the interactor to the peptide
# ACP1, P24666 = target: ACP1, P24666
# Protocol: (§1)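 PRISMA: 15-aa overlapping tiles (offset 8 aa) of 60 microproteins, plus SOS1/GLUT1 control peptides, were spot-synthesized on cellulose membranes in triplicate. Membranes were incubated with benzonase-treated HEK293T lysate, and bound proteins were identified by LC-MS/MS with LFQ. Enrichment is the log2 fold change of each protein in one spot versus all other spots. Only interactors passing the significance cutoff are listed.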
# AKAP1, Q92667 = target: AKAP1, Q92667
# Protocol: as §1
# ARCN1, P48444 = target: ARCN1, P48444
# Protocol: as §1
# CBSL = target: CBSL
# Protocol: as §1
# CCDC137, Q6PK04 = target: CCDC137, Q6PK04
# Protocol: as §1
# CCDC59, Q9P031 = target: CCDC59, Q9P031
# Protocol: as §1
# CD2BP2, O95400 = target: CD2BP2, O95400
# Protocol: as §1
# CDC45, O75419 = target: CDC45, O75419
# Protocol: as §1
# COPG2, Q9UBF2 = target: COPG2, Q9UBF2
# Protocol: as §1
# CTNND1, O60716 = target: CTNND1, O60716
# Protocol: as §1
# DEK, P35659 = target: DEK, P35659
# Protocol: as §1
# DPM3, Q9P2X0 = target: DPM3, Q9P2X0
# Protocol: as §1
# EEF1AKNMT, Q8N6R0 = target: EEF1AKNMT, Q8N6R0
# Protocol: as §1
# EIF3J, O75822 = target: EIF3J, O75822
# Protocol: as §1
# EIF4B, P23588 = target: EIF4B, P23588
# Protocol: as §1
# EXOC8, Q8IYI6 = target: EXOC8, Q8IYI6
# Protocol: as §1
# FABP5, Q01469 = target: FABP5, Q01469
# Protocol: as §1
# GALK1, P51570 = target: GALK1, P51570
# Protocol: as §1
# HNRNPH2, P55795 = target: HNRNPH2, P55795
# Protocol: as §1
# HYOU1, Q9Y4L1 = target: HYOU1, Q9Y4L1
# Protocol: as §1
# KTN1, Q86UP2 = target: KTN1, Q86UP2
# Protocol: as §1
# MAGT1, Q9H0U3 = target: MAGT1, Q9H0U3
# Protocol: as §1
# MAZ, P56270 = target: MAZ, P56270
# Protocol: as §1
# MRPL14, Q6P1L8 = target: MRPL14, Q6P1L8
# Protocol: as §1
# MTPAP, Q9NVV4 = target: MTPAP, Q9NVV4
# Protocol: as §1
# NAP1L4, Q99733 = target: NAP1L4, Q99733
# Protocol: as §1
# OXA1L, Q15070 = target: OXA1L, Q15070
# Protocol: as §1
# P3H1, Q32P28 = target: P3H1, Q32P28
# Protocol: as §1
# PAF1, Q8N7H5 = target: PAF1, Q8N7H5
# Protocol: as §1
# PCM1, Q15154 = target: PCM1, Q15154
# Protocol: as §1
# PDCD6IP, Q8WUM4 = target: PDCD6IP, Q8WUM4
# Protocol: as §1
# PDS5B, Q9NTI5 = target: PDS5B, Q9NTI5
# Protocol: as §1
# PLS3, P13797 = target: PLS3, P13797
# Protocol: as §1
# POM121, Q96HA1 = target: POM121, Q96HA1
# Protocol: as §1
# POM121C, A8CG34 = target: POM121C, A8CG34
# Protocol: as §1
# PSMD1, Q99460 = target: PSMD1, Q99460
# Protocol: as §1
# RAE1, P78406 = target: RAE1, P78406
# Protocol: as §1
# RALY, Q9UKM9 = target: RALY, Q9UKM9
# Protocol: as §1
# RPUSD4, Q96CM3 = target: RPUSD4, Q96CM3
# Protocol: as §1
# SCYL2, Q6P3W7 = target: SCYL2, Q6P3W7
# Protocol: as §1
# SEC16A, O15027 = target: SEC16A, O15027
# Protocol: as §1
# SNRPA, P09012 = target: SNRPA, P09012
# Protocol: as §1
# SPAG5, Q96R06 = target: SPAG5, Q96R06
# Protocol: as §1
# SQSTM1, Q13501 = target: SQSTM1, Q13501
# Protocol: as §1
# TAGLN2, P37802 = target: TAGLN2, P37802
# Protocol: as §1
# TMTC3, Q6ZXV5 = target: TMTC3, Q6ZXV5
# Protocol: as §1
# USP34, Q70CQ2 = target: USP34, Q70CQ2
# Protocol: as §1
# UTP18, Q9Y5J1 = target: UTP18, Q9Y5J1
# Protocol: as §1
# ZNF281, Q9Y2X9 = target: ZNF281, Q9Y2X9
# Protocol: as §1
binder,measurement,setting,value
SRTAGPAATWTGIQR [TBX5-AS1],PRISMA enrichment of interactor (log2),"ACP1, P24666",7.49
same,PRISMA enrichment of interactor (log2),"AKAP1, Q92667",4.86
same,PRISMA enrichment of interactor (log2),"ARCN1, P48444",4.39
same,PRISMA enrichment of interactor (log2),CBSL,5.45
same,PRISMA enrichment of interactor (log2),"CCDC137, Q6PK04",5.63
same,PRISMA enrichment of interactor (log2),"CCDC59, Q9P031",4.43
same,PRISMA enrichment of interactor (log2),"CD2BP2, O95400",4.02
same,PRISMA enrichment of interactor (log2),"CDC45, O75419",4.33
same,PRISMA enrichment of interactor (log2),"COPG2, Q9UBF2",4.44
same,PRISMA enrichment of interactor (log2),"CTNND1, O60716",6.37
same,PRISMA enrichment of interactor (log2),"DEK, P35659",4.55
same,PRISMA enrichment of interactor (log2),"DPM3, Q9P2X0",5.22
same,PRISMA enrichment of interactor (log2),"EEF1AKNMT, Q8N6R0",5.49
same,PRISMA enrichment of interactor (log2),"EIF3J, O75822",5.46
same,PRISMA enrichment of interactor (log2),"EIF4B, P23588",6.15
same,PRISMA enrichment of interactor (log2),"EXOC8, Q8IYI6",4.61
same,PRISMA enrichment of interactor (log2),"FABP5, Q01469",7.85
same,PRISMA enrichment of interactor (log2),"GALK1, P51570",5.07
same,PRISMA enrichment of interactor (log2),"HNRNPH2, P55795",7.82
same,PRISMA enrichment of interactor (log2),"HYOU1, Q9Y4L1",8.25
same,PRISMA enrichment of interactor (log2),"KTN1, Q86UP2",4.16
same,PRISMA enrichment of interactor (log2),"MAGT1, Q9H0U3",7.75
same,PRISMA enrichment of interactor (log2),"MAZ, P56270",7.66
same,PRISMA enrichment of interactor (log2),"MRPL14, Q6P1L8",5.05
same,PRISMA enrichment of interactor (log2),"MTPAP, Q9NVV4",4.96
same,PRISMA enrichment of interactor (log2),"NAP1L4, Q99733",5.94
same,PRISMA enrichment of interactor (log2),"OXA1L, Q15070",7.23
same,PRISMA enrichment of interactor (log2),"P3H1, Q32P28",7.37
same,PRISMA enrichment of interactor (log2),"PAF1, Q8N7H5",5.1
same,PRISMA enrichment of interactor (log2),"PCM1, Q15154",4.19
same,PRISMA enrichment of interactor (log2),"PDCD6IP, Q8WUM4",4.63
same,PRISMA enrichment of interactor (log2),"PDS5B, Q9NTI5",7.85
same,PRISMA enrichment of interactor (log2),"PLS3, P13797",6.54
same,PRISMA enrichment of interactor (log2),"POM121, Q96HA1",7.39
same,PRISMA enrichment of interactor (log2),"POM121C, A8CG34",6.3
same,PRISMA enrichment of interactor (log2),"PSMD1, Q99460",5.55
same,PRISMA enrichment of interactor (log2),"RAE1, P78406",5.29
same,PRISMA enrichment of interactor (log2),"RALY, Q9UKM9",7.29
same,PRISMA enrichment of interactor (log2),"RPUSD4, Q96CM3",5.33
same,PRISMA enrichment of interactor (log2),"SCYL2, Q6P3W7",3.81
same,PRISMA enrichment of interactor (log2),"SEC16A, O15027",4.54
same,PRISMA enrichment of interactor (log2),"SNRPA, P09012",4.94
same,PRISMA enrichment of interactor (log2),"SPAG5, Q96R06",4.02
same,PRISMA enrichment of interactor (log2),"SQSTM1, Q13501",6.89
same,PRISMA enrichment of interactor (log2),"TAGLN2, P37802",5.27
same,PRISMA enrichment of interactor (log2),"TMTC3, Q6ZXV5",4.51
same,PRISMA enrichment of interactor (log2),"USP34, Q70CQ2",4.17
same,PRISMA enrichment of interactor (log2),"UTP18, Q9Y5J1",5.14
same,PRISMA enrichment of interactor (log2),"ZNF281, Q9Y2X9",6

# Part of the list above, with tabs:
binder	measurement	setting	value
SRTAGPAATWTGIQR [TBX5-AS1]	PRISMA enrichment of interactor (log2)	CBSL	5.45
same	PRISMA enrichment of interactor (log2)	CCDC137, Q6PK04	5.63
